Data as given in PubChem BioAssay AID1159579 (Peter MacCallum Cancer Centre, 2015).

Purpose: 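Retest candidate lymphatic endothelial migration regulators using several independent siRNAs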 (follow-up of hits)
Cell system: human dermal lymphatic endothelial cells
Knock-down reagent: single siRNA against human genes, 25 nM
Measured: 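Scratch wound imaging measuring area filled by moving cells plus nuclei number, averaged over two wells and scaled to mock-transfected controls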
Scale: migration relative to mock: higher = more migration into the scratch; mean nuclei count: higher = more cells remaining
Hit rule: 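a ratio of at most 0.6 or at least 1.3 marks altered migration and an active call; a mean nuclei count under 3300 forces an inactive call regardless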
Calls: active = migration changed (impaired or accelerated); inactive = no migration change, or too few cells
In all, the deposit lists about 2,000 reagents; this is a random part of them. Of all reagents, 549 (27%) were called active. 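Some migration ratios are negative; siRNAs with too few cells are inactive whatever their migration ratio.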 A number with no mark means an inactive call. Reagents against one gene are numbered here. Not given: the time to read-out.

| target gene | reagent no. | migration relative to mock | migration and cell number class | mean nuclei count |
| --- | --- | --- | --- | --- |
| DRC3 (dynein regulatory complex subunit 3) | 1 | 0.73 | no change in migration or cell number | 4768 |
| DRC3 (dynein regulatory complex subunit 3) | 2 | 0.7 | no change in migration or cell number | 6278 |
| DRC3 (dynein regulatory complex subunit 3) | 3 | 0.82 | no change in migration or cell number | 6120 |
| DRC3 (dynein regulatory complex subunit 3) | 4 | 0.9 | no change in migration or cell number | 4539 |
| UBE2O (ubiquitin conjugating enzyme E2 O) | 1 | -0.04 (active) | migration reduced | 4560 |
| UBE2O (ubiquitin conjugating enzyme E2 O) | 2 | 1.02 | no change in migration or cell number | 5902 |
| UBE2O (ubiquitin conjugating enzyme E2 O) | 3 | 0.9 | no change in migration or cell number | 7334 |
| UBE2O (ubiquitin conjugating enzyme E2 O) | 4 | 0.52 (active) | migration reduced | 3889 |
| PRKCE (protein kinase C epsilon) | 1 | 0.41 (active) | migration reduced | 5544 |
| PRKCE (protein kinase C epsilon) | 2 | 0.72 | no change in migration or cell number | 5048 |
| PRKCE (protein kinase C epsilon) | 3 | 0.8 | no change in migration or cell number | 5698 |
| PRKCE (protein kinase C epsilon) | 4 | -0.7 | too few cells; migration not scored | 1732 |
| USP25 (ubiquitin specific peptidase 25) | 1 | -0.14 (active) | migration reduced | 4163 |
| USP25 (ubiquitin specific peptidase 25) | 2 | -0.71 | too few cells; migration not scored | 2474 |
| USP25 (ubiquitin specific peptidase 25) | 3 | 0.26 (active) | migration reduced | 4314 |
| USP25 (ubiquitin specific peptidase 25) | 4 | 0.82 | no change in migration or cell number | 5592 |
| SUSD4 (sushi domain containing 4) | 1 | 0.73 | no change in migration or cell number | 5920 |
| SUSD4 (sushi domain containing 4) | 2 | 0.87 | no change in migration or cell number | 5635 |
| SUSD4 (sushi domain containing 4) | 3 | 1.33 (active) | migration increased | 5380 |
| SUSD4 (sushi domain containing 4) | 4 | 0.82 | no change in migration or cell number | 3866 |
| FAM24A (family with sequence similarity 24 member A) | 1 | 0.8 | no change in migration or cell number | 5780 |
| FAM24A (family with sequence similarity 24 member A) | 2 | 0.8 | no change in migration or cell number | 4896 |
| FAM24A (family with sequence similarity 24 member A) | 3 | 0.5 (active) | migration reduced | 4336 |
| FAM24A (family with sequence similarity 24 member A) | 4 | 0.88 | no change in migration or cell number | 4302 |
| CCDC57 (coiled-coil domain containing 57) | 1 | 1.06 | no change in migration or cell number | 6263 |
| CCDC57 (coiled-coil domain containing 57) | 2 | 1.15 | no change in migration or cell number | 5917 |
| CCDC57 (coiled-coil domain containing 57) | 3 | 0.96 | no change in migration or cell number | 6368 |
| CCDC57 (coiled-coil domain containing 57) | 4 | 0.77 | no change in migration or cell number | 5672 |
| PGAP1 (post-GPI attachment to proteins inositol deacylase 1) | 1 | 0.97 | no change in migration or cell number | 6699 |
| PGAP1 (post-GPI attachment to proteins inositol deacylase 1) | 2 | 1.08 | no change in migration or cell number | 6998 |
| PGAP1 (post-GPI attachment to proteins inositol deacylase 1) | 3 | -1.02 | too few cells; migration not scored | 2078 |
| PGAP1 (post-GPI attachment to proteins inositol deacylase 1) | 4 | 0.92 | no change in migration or cell number | 6390 |

Part of the list above in another layout:
target gene | reagent no. | migration relative to mock | migration and cell number class | mean nuclei count
FAM24A (family with sequence similarity 24 member A) | 2 | 0.8 | no change in migration or cell number | 4896
FAM24A (family with sequence similarity 24 member A) | 3 | 0.5 (active) | migration reduced | 4336
FAM24A (family with sequence similarity 24 member A) | 4 | 0.88 | no change in migration or cell number | 4302
CCDC57 (coiled-coil domain containing 57) | 1 | 1.06 | no change in migration or cell number | 6263
CCDC57 (coiled-coil domain containing 57) | 2 | 1.15 | no change in migration or cell number | 5917

Further reagents:
| target gene | reagent no. | migration relative to mock | migration and cell number class | mean nuclei count |
| --- | --- | --- | --- | --- |
| NEXMIF (neurite extension and migration factor) | 1 | 0.82 | no change in migration or cell number | 4980 |
| NEXMIF (neurite extension and migration factor) | 2 | 0.9 | no change in migration or cell number | 5396 |
| NEXMIF (neurite extension and migration factor) | 3 | 1.03 | no change in migration or cell number | 5102 |
| NEXMIF (neurite extension and migration factor) | 4 | 0.36 (active) | migration reduced | 5336 |
| SLC2A10 | 1 | 1.18 | no change in migration or cell number | 5621 |
| SLC2A10 | 2 | 1.05 | no change in migration or cell number | 7420 |
| SLC2A10 | 3 | 0.86 | no change in migration or cell number | 5318 |
| SLC2A10 | 4 | 0.5 (active) | migration reduced | 4758 |
| RMDN1 (regulator of microtubule dynamics 1) | 1 | 0.83 | no change in migration or cell number | 5746 |
| RMDN1 (regulator of microtubule dynamics 1) | 2 | 1.04 | no change in migration or cell number | 6386 |
| RMDN1 (regulator of microtubule dynamics 1) | 3 | 0.74 | no change in migration or cell number | 4084 |
| RMDN1 (regulator of microtubule dynamics 1) | 4 | 1.04 | no change in migration or cell number | 5588 |
| STK33 (serine/threonine kinase 33) | 1 | 0.53 (active) | migration reduced | 5282 |
| STK33 (serine/threonine kinase 33) | 2 | 0.76 | no change in migration or cell number | 5792 |
| STK33 (serine/threonine kinase 33) | 3 | 0.81 | no change in migration or cell number | 6291 |
| STK33 (serine/threonine kinase 33) | 4 | 0.74 | no change in migration or cell number | 4728 |
